Data: patent publication US20260183350A1, “ANTIBIOTIC-RESISTANT BACTERIA” (priority 2022, published 2026)
For at least one compound, name, drawing or mass did not settle the structure.

Key:
Experiment in all cases: Nutrient preference assay (nutrient mixture)
Format in all cases: cell-based
Conditions in all cases: M9 with […] of each nutrient, up to 24 hours
[1] = test system: NDM-1 Enterobacter cloacae
Experimental: (§1) New Delhi Metallo-β-lactamase 1 (NDM-1) Escherichia coli, NDM-1 Klebsiella pneumoniae, and NDM-1 Enterobacter cloacae were isolated from patients with intestinal CRE colonisation from the Imperial College Healthcare NHS Trust via rectal swab (REC ref. 19/LO/0112). The species were assigned by matrix assisted laser desorption ionization-time of flight (MALDI-TOF) mass spectrometry and later confirmed with 16S rRNA gene sequencing. CRE status was determined using X-pert Carba-R PCR detection (Cepheid, Sunnyvale, CA, USA), (Otter, J. A. et al. Detecting carbapenemase-producing Enterobacterales (CPE): an evaluation of an enhanced CPE infection control and screening programme in acute care. J Antimicrob Chemother 75, 2670-2676 (2020)).
(§2) CRE isolates were passaged once from frozen glycerol stocks on R2A plates. Cells were suspended in M9 minimal media to a turbidity of 42% using a Turbidimeter (Biolog Inc.), then diluted 1 in 6 to inoculate the nutrient preference assays. M9 minimal media was supplemented with 0.015% of each of the following: L-arabinose, D-fructose, L-fucose, D-galactose, D-glucose, D-mannose, D-ribose, D-xylose, N-acetylglucosamine, D-maltose, sucrose, D-trehalose, L-alanine, L-arginine, L-aspartate, L-glutamate, L-glycine, L-isoleucine, L-leucine, L-lysine, L-methionine, L-phenylalanine, L-proline, L-threonine, L-tryptophan, L-tyrosine, L-valine, uracil, and succinate. Cultures were incubated anaerobically and aerobically in a plate reader and OD600 readings were collected every 15 minutes for 24 hours. Cultures were also incubated anaerobically and aerobically for 24 h and samples were collected at 0, 4, 8, and 24 hours post-inoculation for 1H-NMR spectroscopy. Changes in nutrients and metabolites by CRE isolates was compared to the sterile media control over time using a two-way mixed ANOVA followed by pairwise comparisons with Bonferroni correction. […]

NDM-1 Escherichia coli = test system: NDM-1 Escherichia coli
Experimental: as §1, §2

[2] = test system: NDM-1 Klebsiella pneumoniae
Experimental: as §1, §2

N[C@@H](CC(=O)O)C(=O)O [aspartate, L-aspartate]
high utilisation: Utilisation of nutrient by E. cloacae from nutrient mixture (1H-NMR) ([1]; aerobic) | Utilisation of nutrient by E. cloacae from nutrient mixture (1H-NMR) ([1]; anaerobic) | Utilisation of nutrient by E. coli from nutrient mixture (1H-NMR) (NDM-1 Escherichia coli; aerobic) | Utilisation of nutrient by E. coli from nutrient mixture (1H-NMR) (NDM-1 Escherichia coli; anaerobic) | Utilisation of nutrient by K. pneumoniae from nutrient mixture (1H-NMR) ([2]; aerobic) | Utilisation of nutrient by K. pneumoniae from nutrient mixture (1H-NMR) ([2]; anaerobic)
